Results: patent publication US20200392227A1
No constants are given. Whether binding was seen depends on the method and setting. Binding can be weak; no strength is given. Where a sequence is shown, tags or fusion partners need not be part of it.

Sequences of proteins named here, by UniProt entry; tags and fusion partners are left off. A change or cut given only in a name is not applied to a line headed by its entry.
UniProt P55899: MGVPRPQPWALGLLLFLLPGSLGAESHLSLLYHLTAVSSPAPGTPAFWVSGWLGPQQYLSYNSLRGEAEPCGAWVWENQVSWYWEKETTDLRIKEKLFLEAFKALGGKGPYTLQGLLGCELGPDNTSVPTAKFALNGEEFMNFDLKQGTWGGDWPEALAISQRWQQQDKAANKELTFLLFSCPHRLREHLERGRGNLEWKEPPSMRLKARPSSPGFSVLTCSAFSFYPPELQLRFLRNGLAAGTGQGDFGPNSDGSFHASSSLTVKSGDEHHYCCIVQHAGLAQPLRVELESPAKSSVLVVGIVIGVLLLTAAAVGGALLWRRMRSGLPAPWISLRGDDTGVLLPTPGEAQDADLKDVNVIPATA

Molecular target: human FcRn protein (MednaBio, E1032) (human) (UniProt P55899)
Experiment: BLI

B1: anti-CD137 IgG4 with Fc variant G4m2 (antibody)
heavy: EVQLVQSGAEVKKPGESLRISCKGSGYSFSTYWISWVRQMPGKGLEWMGKIYPGDSYTNYSPSFQGQVTISADKSISTAYLQWSSLKASDTAMYYCARGYGIFDYWGQGTLVTVSSASTKGPSVFPLAPCSRSTSESTAALGCLVKDYFPEPVTVSWNSGALTSGVHTFPAVLQSSGLYSLSSVVTVPSSSLGTKTYTCNVDHKPSNTKVDKRVESKYGPPCPPCPAPEFLGPSVFLFPPKPKDTLMISRTPEVTCVVVDVSQEDPEVQFNWYVDGVEVHNAKTKPREEQFNSTYRVVSVLTVLHQDWLNGKEYKCKVSNKGLPSSIEKTISKAKGQPREPQVYTLPPSQEEMTKNQVSLTCLVKGFYPSDIAVEWESNGQPENNYKTTPPVLDSDGSFFLYSRLTVDKSRWQEGNVFSCSVMHEALHNHYTQKSLSLSLGK
light: SYELTQPPSVSVSPGQTASITCSGDNIGDQYAHWYQQKPGQSPVLVIYQDKNRPSGIPERFSGSNSGNTATLTISGTQAMDEADYYCATYTGFGSLAVFGGGTKLTVLGQPKAAPSVTLFPPSSEELQANKATLVCLISDFYPGAVTVAWKADSSPVKAGVETTTPSKQSNNKYAASSYLSLTPEQWKSHRSYSCQVTHEGSTVEKTVAPTECS
- binding: binds
